No constants are given. Whether binding was seen depends on the method and setting. Some binding calls cover weakened binding; strength is not graded here. Where a sequence is shown, tags or fusion partners need not be part of it.

Results on one molecule are retold here after article PMC5333915.

The target of the test is Suppressor of Gene Silencing 3 from Nicotiana benthamiana (NbSGS3), GAL4 two-hybrid fusion (Nicotiana benthamiana) (UniProt X4YFK1). Briefly: two-hybrid; GAL4 system (pGADT7 AD, pGBKT7 BD) in yeast; reporter genes HIS3 and ADE2; growth on SD/Leu-Trp-His selection plates with 5 mM 3-AT; serial 10-fold dilutions. In general terms: A reporter such as luciferase makes a cellular process visible.

B1: Suppressor of Gene Silencing 3 from Nicotiana benthamiana (NbSGS3), GAL4 two-hybrid fusion (protein, UniProt X4YFK1 1-635)
chain: MSSSKGVGKSSAKQKAICETTTPTVDEISLGVGDMGFNSEQNDGWEVYARKTKNKSGSSAGKQWVPQNPSQKTWGNQNAKAWGHPDVVRKLGMRNNVGPGQGSRNNWSTPIDPRKPAGRDNSRPQLYDGGLGNCYTPSPAAVPPALKNGWDWSARAASTDPKEDQDASPVADSVKGSEHDGEDNESDFLDESDDDLRSDEFDSDVAEMSYETRKKNRWIKELFESLESLAVTEINDPERQWHCPACKGGPGAIEWFTGLQSLMTHAKTKGVRVKIHRELAELLEEELREIGTSVVPPGEVYGRWDGIEFKDKEIVWPPMVIIMNTRHDKGENDKWIGMGNQELLEYFSSYAAVKARHSYGPQGHRGMSVLIFEASAVGYIEADRLHEHFSENGRDRDAWERRAARFYSGGKRLLYGYMAEKRDIDSFNQHSPGKSRLKFEMRSYQEAVGNPAKQMMEDNQQLNWFKNKAAKHQMQAKALEQSLTLVSEKHRQTLEENKIVRLKTKIHHEQIKEEMEYQEQFFKDQIQIIHDARTAEEEKFEKVQQEQREMAQQSNASTSSVEDHRVRAERVAKFIKLQDKEMEEFVEERENLLRSHEDRIAALRRKYWEAEVELEKNFDLELAKLMEKYSPEQSQ
Take B1: the binding result is “binds”.
